This is an account of results in paper PMC10403255, “Two RNA-binding proteins mediate the sorting of miR223 from mitochondria into exosomes”.

The chains behind the UniProt entries cited, without tags or fusion partners. Residues count along the entry.
UniProt P67809: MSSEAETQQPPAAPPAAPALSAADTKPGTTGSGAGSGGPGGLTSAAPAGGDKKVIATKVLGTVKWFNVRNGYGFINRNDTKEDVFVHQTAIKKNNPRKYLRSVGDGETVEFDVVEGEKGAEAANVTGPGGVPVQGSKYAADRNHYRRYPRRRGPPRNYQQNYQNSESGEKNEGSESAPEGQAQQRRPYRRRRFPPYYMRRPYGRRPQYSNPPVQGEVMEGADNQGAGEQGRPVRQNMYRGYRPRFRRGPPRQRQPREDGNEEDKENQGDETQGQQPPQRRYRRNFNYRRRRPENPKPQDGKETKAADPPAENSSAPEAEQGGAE
UniProt Q07021, residues 74-282: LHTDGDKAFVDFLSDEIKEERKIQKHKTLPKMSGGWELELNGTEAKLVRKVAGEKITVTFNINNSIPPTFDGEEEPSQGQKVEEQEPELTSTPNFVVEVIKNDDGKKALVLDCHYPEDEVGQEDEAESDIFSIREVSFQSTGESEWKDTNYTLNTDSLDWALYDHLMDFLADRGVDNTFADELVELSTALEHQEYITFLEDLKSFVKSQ

In assay [1] the target is Twin Strep tag hybrid YBX1 (UniProt P67809). The assay is described as follows: pull-down; Twin Strep-tagged YBX1 overexpressed in HEK293T; lysate on Strep-Tactin Sepharose, wash with 500 mM NaCl, elution with desthiobiotin, gel filtration (Superdex-200); copurified band seen by Coomassie blue and identified by immunoblot.
The target of the next assay is His-MBP-YBX1 (UniProt P67809). Briefly: pull-down; His-MBP-YBX1 coexpressed with untagged YBAP1 in Sf9 cells; lysate with Benzonase, 0.5 M KCl; Ni-NTA, then amylose resin, then gel filtration (Superdex-200); gel of the copurified proteins. (In general: Size exclusion chromatography separates by hydrodynamic size, large species first.)

Results are given in words; binding and its absence hold for the method and conditions named. Binding seen in cells or lysates may run through a third protein. Some binding calls cover weakened binding; strength is not graded here.

As for “YBAP1 (endogenous, HEK293T) (from UniProt Q07021 74-282)”, the binding entry in assay [1] was “binds”.
On to “untagged YBAP1 (from UniProt Q07021 74-282)”, for which the binding result with His-MBP-YBX1 is listed as “binds”.
